According to PubChem BioAssay AID588590 (National Center for Advancing Translational Sciences (NCATS), 2011):
About 4,000 (1%) of roughly 390,000 compounds were called active. Calls follow the shape of the dose curve; as a rule, active = well fitted inhibition curve with a large enough effect; inconclusive = small, poorly fitted or top-dose-only effect, or another doubt; inactive = no such curve, though single readings can be large or run the other way. Inconclusive results, whose numbers are uncertain, are shown. Potencies of inconclusive entries are doubtful fits and often do not repeat.

Protein sequences, listed by entry. Tags and fused reporters are not part of them. Lines headed by an entry give the natural chain unless they say otherwise; changes in a name come on top.
UniProt Q9UNA4: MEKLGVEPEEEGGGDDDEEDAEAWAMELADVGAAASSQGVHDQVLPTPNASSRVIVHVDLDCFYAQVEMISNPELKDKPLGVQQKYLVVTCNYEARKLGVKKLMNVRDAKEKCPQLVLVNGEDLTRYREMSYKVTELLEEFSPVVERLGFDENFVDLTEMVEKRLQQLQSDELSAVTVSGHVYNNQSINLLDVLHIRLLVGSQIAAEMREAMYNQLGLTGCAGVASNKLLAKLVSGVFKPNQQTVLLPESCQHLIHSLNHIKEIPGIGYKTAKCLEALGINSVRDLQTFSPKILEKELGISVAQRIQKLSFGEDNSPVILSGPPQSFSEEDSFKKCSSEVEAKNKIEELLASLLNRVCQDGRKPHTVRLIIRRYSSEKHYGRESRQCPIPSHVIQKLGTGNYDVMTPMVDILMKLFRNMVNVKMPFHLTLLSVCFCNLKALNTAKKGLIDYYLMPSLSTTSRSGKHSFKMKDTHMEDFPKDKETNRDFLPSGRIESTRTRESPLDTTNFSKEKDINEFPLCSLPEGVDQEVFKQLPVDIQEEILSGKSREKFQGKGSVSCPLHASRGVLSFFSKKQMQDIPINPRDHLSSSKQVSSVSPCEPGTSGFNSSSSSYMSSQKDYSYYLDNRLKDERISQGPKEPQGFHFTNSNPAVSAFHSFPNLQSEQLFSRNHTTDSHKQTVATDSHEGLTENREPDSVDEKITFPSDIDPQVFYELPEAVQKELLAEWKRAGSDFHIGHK

The molecules below were run against DNA polymerase iota (Homo sapiens) (UniProt Q9UNA4) (assay: qHTS for Inhibitors of Polymerase Iota). Conditions: Pol iota fluorescent replication assay, 10 min; series mostly up to 115 µM.
Procedure, shortened: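 Fluorescent replication assay read twice, at 0 min and 10 min after adding 50 nM (final) substrate. Enzyme (10 nM) and compounds were first incubated 15 min at room temperature; enzyme-free buffer wells were negative controls.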
Potency is read from the fitted curve at half-maximal effect.

SMILES	Potency
O=C(Nc1ccc(-c2nc3ccccc3[nH]2)cc1)c1ccccc1NS(=O)(=O)c1ccc(F)cc1	inconclusive: 56.2 µM [inhibitor, partial curve, poor fit]
O=C1NN(c2ccc(F)c(Cl)c2)C(=O)/C1=C\c1cccc(OC(=O)c2cccs2)c1	inconclusive: 10 µM [inhibitor, full curve, poor fit]
COc1cc(/C=C2\C(=N)N3N=C(S(C)(=O)=O)SC3=NC2=O)cc(OC)c1OCCOc1ccc(C)cc1	inconclusive: 44.7 µM [inhibitor, partial curve, poor fit]
O=C(NN1C(=O)/C(=C/c2ccc(O)cc2)SC1=S)c1ccccc1O	inconclusive: 35.5 µM [inhibitor, single point]
